According to article PMC7426016:
Results are given in words; binding and its absence hold for the method and conditions named. Binding seen in cells or lysates may run through a third protein. Some results given as binding are weak or reduced against the parent protein; the word gives no strength.

Amino acid sequences for entries named in this document (tags omitted).
UniProt Q61056: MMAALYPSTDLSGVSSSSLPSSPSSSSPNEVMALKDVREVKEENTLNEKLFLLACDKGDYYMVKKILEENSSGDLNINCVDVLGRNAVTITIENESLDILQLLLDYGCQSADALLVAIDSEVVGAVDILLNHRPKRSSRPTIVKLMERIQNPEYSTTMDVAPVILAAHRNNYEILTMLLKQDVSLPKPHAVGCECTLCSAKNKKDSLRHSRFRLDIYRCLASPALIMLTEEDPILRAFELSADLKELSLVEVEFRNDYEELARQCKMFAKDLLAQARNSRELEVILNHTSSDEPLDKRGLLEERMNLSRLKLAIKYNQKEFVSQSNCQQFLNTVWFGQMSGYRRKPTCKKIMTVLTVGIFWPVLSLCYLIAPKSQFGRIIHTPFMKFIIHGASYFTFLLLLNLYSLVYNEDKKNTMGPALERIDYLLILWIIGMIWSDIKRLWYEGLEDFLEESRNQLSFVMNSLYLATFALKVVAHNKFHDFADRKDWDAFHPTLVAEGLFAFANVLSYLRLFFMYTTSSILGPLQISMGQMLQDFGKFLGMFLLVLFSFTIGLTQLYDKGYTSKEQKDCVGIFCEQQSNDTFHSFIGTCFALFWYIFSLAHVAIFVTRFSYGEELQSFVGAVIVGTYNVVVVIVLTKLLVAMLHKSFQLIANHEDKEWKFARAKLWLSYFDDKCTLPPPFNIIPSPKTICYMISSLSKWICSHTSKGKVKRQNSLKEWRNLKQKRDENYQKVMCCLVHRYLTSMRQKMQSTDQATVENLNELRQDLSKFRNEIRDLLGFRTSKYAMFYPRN
UniProt Q9EPK8: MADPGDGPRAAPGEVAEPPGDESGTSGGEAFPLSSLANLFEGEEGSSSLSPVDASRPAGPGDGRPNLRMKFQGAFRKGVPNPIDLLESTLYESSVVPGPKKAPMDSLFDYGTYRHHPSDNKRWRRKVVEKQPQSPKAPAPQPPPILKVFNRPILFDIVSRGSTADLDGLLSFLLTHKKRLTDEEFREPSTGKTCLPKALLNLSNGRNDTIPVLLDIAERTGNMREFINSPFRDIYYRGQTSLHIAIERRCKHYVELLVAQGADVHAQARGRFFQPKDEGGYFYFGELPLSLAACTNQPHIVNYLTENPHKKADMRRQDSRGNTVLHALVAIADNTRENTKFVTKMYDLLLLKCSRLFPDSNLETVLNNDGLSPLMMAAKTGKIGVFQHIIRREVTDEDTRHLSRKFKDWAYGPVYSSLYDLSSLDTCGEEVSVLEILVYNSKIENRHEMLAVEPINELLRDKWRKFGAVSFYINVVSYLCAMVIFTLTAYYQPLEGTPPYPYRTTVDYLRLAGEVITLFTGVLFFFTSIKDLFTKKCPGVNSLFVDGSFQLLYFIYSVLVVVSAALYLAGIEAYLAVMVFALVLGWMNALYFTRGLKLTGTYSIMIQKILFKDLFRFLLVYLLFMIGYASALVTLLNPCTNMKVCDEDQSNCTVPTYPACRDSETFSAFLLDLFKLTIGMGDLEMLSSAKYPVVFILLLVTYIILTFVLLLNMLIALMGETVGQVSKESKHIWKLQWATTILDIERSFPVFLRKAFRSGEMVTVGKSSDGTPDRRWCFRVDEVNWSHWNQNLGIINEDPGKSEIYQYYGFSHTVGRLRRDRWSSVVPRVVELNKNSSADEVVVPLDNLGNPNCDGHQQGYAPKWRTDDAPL

Target: TRPC1 (mouse (endogenous in mesenteric artery endothelial cells)) (UniProt Q61056)
Assay: proximity ligation; Duolink in situ PLA on freshly isolated mouse mesenteric artery ECs, fixed with 4% paraformaldehyde and permeabilised with 0.1% Triton X-100; goat anti-TRPV4 antibody and rabbit T1E3 (both 1:200) overnight at 4°C; signal when in close proximity (<40 nm); TRPC1-/- ECs and omission of primary antibodies as controls

- binding: binds
Substance: TRPV4 (from UniProt Q9EPK8 1-871)
